From PubChem BioAssay AID493014 (National Center for Advancing Translational Sciences (NCATS), 2011)
This is one part of the list. These are further read-outs of the screen, such as a control signal, another cell line or another target. No call is given for them. The list favours compounds with an active or inconclusive main result. Words in brackets tell the shape of the fitted curve; partial curves, single points and poor fits give uncertain potencies.

Experiment: qHTS Assay to Find Inhibitors of Chronic Active B-Cell Receptor Signaling
Details: ABC-DLBCL IkBa-CBG/CBR reporter, luminescence ratio (green luciferase fused to IkBa over red control in TMD8 lymphoma cells), 4 h
How it was run: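 Doxycycline induced both beetle luciferases in TMD8 lymphoma cells; IKK-driven degradation limits the IkappaBalpha-fused green signal, while red luminescence normalises for cell number and nonspecific effects. Compounds tested up to 46 uM, 4 hrs.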

[1] = measured here: CBR red luminescence, cell number
[2] = measured here: IkBa-CBG green luminescence

| SMILES | AC50 [1] | AC50 [2] |
| --- | --- | --- |
| O=C(/C=C/c1ccccc1)NNC(=O)c1cccs1 | 10 µM [falling, partial curve] | – |
| COC(=O)c1ccc(C)c(NC(=O)CN(c2cc(OC)ccc2OC)S(C)(=O)=O)c1 | 0.891 µM [rising, partial curve] | – |
| Cc1ccc2c(CN3CCC(C)CC3)cc(=O)oc2c1 | 20.6 µM [falling, partial curve, poor fit] | – |
| COC(=O)N/N=C\C=C\c1ccc2c(c1)OCO2 | 22.4 µM [falling, partial curve, poor fit] | – |
| O=c1[nH]c(COc2ccccc2)nc2ccccc12 | 11.2 µM [falling, partial curve, poor fit] | – |
| COCc1cc(CN(C)C(=O)c2oc3c(F)cccc3c2C)[nH]n1 | 11.2 µM [rising, single point] | – |
| Cc1nc(NC(=O)c2ccccc2)sc1-c1csc(Nc2ccc(Cl)cc2)n1 | 35.5 µM [falling, partial curve, poor fit] | – |
| O=C(OCc1cc(=O)n2cc(Br)ccc2n1)c1ccc(Cl)c(S(=O)(=O)NCc2ccccc2)c1 | 0.206 µM [rising, partial curve, poor fit] | – |
| CCOc1ccc(C2NC(=O)C(C#N)=C(S)N2c2cccc(C)c2)cc1OC (configuration not stated) | 5.62 µM [rising, full curve, poor fit] | – |
| COC(=O)CCCN1C(=O)c2cccc3cccc(c23)C1=O | 2.82 µM [rising, partial curve] | – |
| COc1cc(NC(=S)NNC(=O)CC(C)C)c(OC)cc1Cl | 18.4 µM [rising, single point] | – |
| COc1ccc(COc2cccc(C=O)c2)cc1 | 9.2 µM [falling, partial curve] | – |
| CCc1nnc(NC(=O)c2ccc(-c3ccc(C(C)=O)cc3)o2)s1 | 6.51 µM [falling, single point] | – |
| N#Cc1c(/N=C/c2ccco2)sc2c1CCCCC2 | 7.94 µM [rising, partial curve, poor fit] | – |
| COC(=O)c1c(-c2ccncc2)csc1NC(=O)c1ccoc1C | 7.31 µM [rising, partial curve, poor fit] | – |
| Cn1nnnc1SC(C(=O)Nc1cccc(C(F)(F)F)c1)c1ccccc1 (configuration not stated) | 9.2 µM [falling, partial curve] | – |
| COc1ccc2c(c1)C1=NN(/C(C)=C/C(C)=O)C(c3cccc(F)c3)C1CC2 (configuration not stated) | 8.2 µM [rising, partial curve, poor fit] | – |
| CN(C(=O)COC(=O)c1ccccc1OCc1ccc(Cl)cc1)c1c(N)n(Cc2ccccc2)c(=O)[nH]c1=O | 0.13 µM [rising, full curve, poor fit] | – |
| Cc1ccc(NC(=S)/N=C(\N)Nc2nc(C)c3ccccc3n2)cc1C | 5.8 µM [falling, partial curve] | – |
| O=C(NC(=S)Nc1ccccc1C(=O)O)c1ccc(-c2ccc(Br)cc2)o1 | 7.08 µM [falling, full curve] | – |

| SMILES | AC50 [1] | AC50 [2] |
| --- | --- | --- |
| COc1ccc(OC)c(NC(=O)C2CCCC2)c1 | 0.146 µM [rising, full curve, poor fit] | – |
| CCOC(=O)c1c(N2C(=O)C=CC2=O)sc(C)c1C | 8.2 µM [falling, partial curve] | 9.2 µM [rising, partial curve, poor fit] |
| N/C(=N\OC(=O)C1CCCCC1)c1cccc([N+](=O)[O-])c1 | 5.01 µM [rising, partial curve] | – |
| COCC(C)n1c(C)cc(C(=O)CSc2nnc(Nc3ccccc3F)s2)c1C (configuration not stated) | 3.16 µM [falling, partial curve] | – |
| CC(=O)NC1C(=O)N=C(SCc2ccccc2)NC1=O (configuration not stated) | 0.164 µM [falling, full curve, poor fit] | – |
| Cc1[nH]c2ccccc2c1C(C#N)(C#N)C1C(=O)c2ccccc2C1=O | 35.5 µM [falling, single point] | 31.6 µM [rising, single point] |
| CCn1cc(C(=O)N(CCC(C)C)c2c(N)n(Cc3ccccc3)c(=O)[nH]c2=O)c(=O)c2ccc(C)nc21 | 11.2 µM [falling, partial curve, poor fit] | – |
| CCCCn1c(SCC(=O)N2CCC(C)CC2)nc2ccsc2c1=O | 12.6 µM [falling, partial curve, poor fit] | – |
| N#Cc1ncc(C(F)(F)F)cc1Sc1ccc(N)cc1 | 5.17 µM [rising, partial curve, poor fit] | – |
| CC(C)N(Cc1nc(-c2ccc(Cl)cc2)no1)C(=O)c1cccs1 | 20.6 µM [rising, partial curve, poor fit] | – |
| COC(=O)C(NC(=O)c1ccco1)(Nc1nc(C)cs1)C(F)(F)F (configuration not stated) | 35.5 µM [rising, single point] | – |
| CC1(C)CC(=O)CC2(C1)NCC(c1ccccc1Cl)c1c2[nH]c2ccccc12 (configuration not stated) | 25.1 µM [falling, single point] | – |
| Cc1nn(C)c(C)c1NC(=O)c1cc2nc(-c3ccco3)cc(C(F)(F)F)n2n1 | – | 14.1 µM [rising, partial curve, poor fit] |
| O=C(/C=C/Sc1ccc(C(F)(F)F)cn1)c1ccccc1 | 17.8 µM [rising, partial curve] | – |
| Cc1c(Cc2ccccc2)c(=O)oc2cc(O)cc(O)c12 | 11.2 µM [falling, single point] | – |
| CCOc1ncccc1C(=O)OCC(=O)c1ccc(Br)s1 | 23.1 µM [rising, single point] | – |
| Cc1cc(C)c(O)c(C2(O)C(=O)c3ccccc3C2=O)c1 | 10 µM [rising, partial curve, poor fit] | – |
| O=C(c1ccc(S(=O)(=O)Cc2ccccc2F)c([N+](=O)[O-])c1)N1CCCC1 | 25.1 µM [falling, single point] | – |
| O=C(Oc1ccc2c(c1)OCO2)c1ccc(F)cc1Cl | 15.8 µM [rising, partial curve, poor fit] | – |
| CCOC(=O)N1CCN(C(=S)NC2CCCCC2)CC1 | 20.6 µM [rising, partial curve, poor fit] | – |

Some of the entries above in a different format.
SMILES | AC50 [1] | AC50 [2]
CC1(C)CC(=O)CC2(C1)NCC(c1ccccc1Cl)c1c2[nH]c2ccccc12 (configuration not stated) | 25.1 µM [falling, single point] | –
Cc1nn(C)c(C)c1NC(=O)c1cc2nc(-c3ccco3)cc(C(F)(F)F)n2n1 | – | 14.1 µM [rising, partial curve, poor fit]
